Substitutions are numbered along the chain they refer to. No constants are given. Whether binding was seen depends on the method and setting. Some results given as binding are weak or reduced against the parent protein; the word gives no strength.
B1: SPI22 (designed binder)
chain: MHSFCAFKADGGPCKGKFPRFFFNIFTRQCEEFIYGGCEGNQNRFESLEECKKMCTRD
B2: SPI47 (designed binder)
chain: B1 chain with G11A, K15R, G16A, P19E
B3: SPI51 (designed binder)
chain: MHSFCAFKADAGPCRAKFERFFFNIFTRQCTAFFYGGCGGNQNRFESLEECKKMCTRD
B4: SPI43 (designed binder)
chain: MHSFCAFKAETGPCRGKFDRWFFNIFTRQCESFHYGGCKGNQNRFESLEECKKMCTRD
B5: SPI54 (designed binder)
chain: B3 chain with A11S, K17R, E19D, F21W, A32R, F34P
B6: SPI11 (Selected Plasmin Inhibitor#11) (designed binder)
chain: B4 chain with G16A, K17R, S32E, H34I, K39E
B7: SPI23 (designed binder)
chain: B1 chain with D10E, K15R, G16A, P19Q, F21W
B8: QS4, yeast-expressed soluble protein (designed binder)
chain: EAAEMHSFCAFKADDGPCKARFERFFFNIFTRQCEQFYYGGCDGNQNRFESLEECKKMCTRD
B9: ARFK#1, yeast-expressed soluble protein (designed binder)
chain: B8 chain with Y38V, D43G
B10: ARFK#2, yeast-expressed soluble protein (designed binder)
chain: B8 chain with Q36E, Y38V, D43G
B11: NS11 (designed binder)
chain: B3 chain with A11D, R15K, K17R, T31E, A32Q, F34I
B12: NS12 (designed binder)
chain: B1 chain with G11D, G16A, K17R, P19E, E32Q, E39F
B13: NS14 (designed binder)
chain: B3 chain with A11D, R15K, K17R, T31Q, A32Q, F34H, G39E
B14: NS15 (designed binder)
chain: B3 chain with A11D, R15K, K17R, T31E, A32Q, F34V, G39A
B15: NS16 (designed binder)
chain: B3 chain with A11D, R15K, K17R, T31E, A32Q, F34L
B16: ARFK#1 (display phage) (designed binder)
chain: B3 chain with A11D, R15K, K17R, T31E, A32Q, F34V
B17: ARFK#2 (display phage) (designed binder)
chain: B3 chain with A11D, R15K, K17R, T31E, A32E, F34V
B18: ARFK#3 (designed binder)
chain: B1 chain with G11D, P13L, K17R, P19Q
B19: ARFK#4 (designed binder)
chain: B3 chain with A11D, R15K, K17R, T31E, A32Q, F34T, G39M
B20: ARFK#5 (designed binder)
chain: B3 chain with A11D, R15K, K17R, T31E, A32Q, F34S
B21: ARFK#6 (designed binder)
chain: B1 chain with G11D, G16A, K17R, P19E, I34L, E39L
B22: ARFK#7 (designed binder)
chain: B3 chain with A11D, R15K, K17R, T31E, A32Q, F34S, G39Q
B23: ARFK#8 (designed binder)
chain: B3 chain with A11D, R15K, K17R, T31E, A32Q, F34A, G39A
B24: ARFK#9 (designed binder)
chain: B1 chain with G11D, G16A, K17R, P19E, E32Q, E39V
B25: ARFK#10 (designed binder)
chain: B1 chain with G11D, G16A, K17R, P19E, I34S, E39K
B26: ARFK#11 (designed binder)
chain: B1 chain with G11D, G16A, K17R, P19E, I34V, E39K
B27: ARFK#12 (designed binder)
chain: B3 chain with A11D, R15K, K17S, T31E, A32Q, F34T, G39N
B28: ARFK#13 (designed binder)
chain: B1 chain with G11D, G16A, K17S, P19E, I34T, E39L
B29: ARFK#14 (designed binder)
chain: B3 chain with A11D, R15K, K17R, T31E, A32Q, G39H
B30: ARFK#15 (designed binder)
chain: B3 chain with A11D, R15K, K17R, T31E, A32Q, F34T
B31: ARFK#16 (designed binder)
chain: B3 chain with A11D, R15K, K17R, T31E, A32Q, F34T, G39M
B32: SPI15 (designed binder)
chain: B4 chain with T11S, G16A, K17R, S32E, H34I, K39E
B33: SPI08 (designed binder)
chain: B1 chain with K15R, G16A, K17R, P19E
B34: SPI52 (designed binder)
chain: B3 chain with T31E, F34L
B35: SPI46 (designed binder)
chain: B3 chain with A11V, T31E, F34L, G39E
B36: SPI41 (designed binder)
chain: B3 chain with K17R, T31D, A32T, F34L, G39E
B37: SPI42 (designed binder)
chain: B4 chain with E31Q, S32G, H34V, K39G
B38: SPI56 (designed binder)
chain: B4 chain with E31A, S32Q, H34V, K39E
B39: SPI59 (designed binder)
chain: B4 chain with G16A, E31N, S32T, H34V, K39G
B40: SPI60 (designed binder)
chain: B4 chain with G16A, S32P, H34V, K39E
B41: SPI55 (designed binder)
chain: B4 chain with T11V, G16A, E31H, S32L, H34T, K39G
B42: SPI49 (designed binder)
chain: MHSFCAFKAETGPCRAKIPRLFFNIFTRQCEPFIWGGCGGNQNRFESLEECKKMCTRD
B43: SPI57 (designed binder)
chain: MHSFCAFKADSGPCKGRFGRLFFNIFTRQCTAFDWGGCGGNQNRFESLEECKKMCTRD
B44: SPI53 (designed binder)
chain: B4 chain with R15K, K17S, E31N, S32V, H34R, K39R

Sequences of proteins named here, by UniProt entry; tags and fusion partners are left off. Residues count along the entry.
UniProt P00747, residues 97-810: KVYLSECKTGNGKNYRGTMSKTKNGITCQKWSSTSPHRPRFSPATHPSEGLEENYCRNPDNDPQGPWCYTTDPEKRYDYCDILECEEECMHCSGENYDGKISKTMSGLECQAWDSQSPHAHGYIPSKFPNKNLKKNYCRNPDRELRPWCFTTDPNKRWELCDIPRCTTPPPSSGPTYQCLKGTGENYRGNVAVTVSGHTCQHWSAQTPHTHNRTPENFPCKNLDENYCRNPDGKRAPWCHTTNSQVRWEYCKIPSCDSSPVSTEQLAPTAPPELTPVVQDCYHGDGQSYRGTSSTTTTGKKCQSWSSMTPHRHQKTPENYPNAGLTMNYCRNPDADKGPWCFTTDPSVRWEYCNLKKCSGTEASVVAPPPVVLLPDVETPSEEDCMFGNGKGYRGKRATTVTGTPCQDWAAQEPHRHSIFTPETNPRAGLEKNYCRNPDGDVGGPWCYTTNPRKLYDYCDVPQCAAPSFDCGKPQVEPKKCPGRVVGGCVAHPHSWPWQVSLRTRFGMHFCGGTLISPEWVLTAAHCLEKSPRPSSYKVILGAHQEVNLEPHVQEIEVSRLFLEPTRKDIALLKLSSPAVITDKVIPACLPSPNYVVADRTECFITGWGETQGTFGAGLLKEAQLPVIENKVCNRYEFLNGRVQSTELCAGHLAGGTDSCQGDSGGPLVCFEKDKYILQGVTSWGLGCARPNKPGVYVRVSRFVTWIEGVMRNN

These binders were tested against human plasmin (human) (UniProt P00747) (assay: ranking by plasmin inhibition (footnote of Table 8)).

Binder	binding
B1	binds
B2	binds
B3	binds
B4	binds
B5	binds
B6	binds
B7	binds
B8	binds

These binders were tested against human plasmin (human) (UniProt P00747) (assay: inhibition of plasmin hydrolysis of a fluorogenic substrate).

Binder	binding
B9	binds
B10	binds

What follows are binders tested against human plasmin (human) (UniProt P00747) (assay: preliminary testing of proteins for plasmin inhibitory activity).

Binder	binding
B1	binds
B2	binds
B3	binds
B4	binds
B5	binds
B6	binds
B7	binds
B8	binds

The binders below were run against human plasmin (human) (UniProt P00747) (assay: phage display selection on plasmin-agarose beads, selected clone sequenced).

Binder	binding
B11	binds
B12	binds
B13	binds
B14	binds
B15	binds

Each binder was assayed against human plasmin (human) (UniProt P00747) (assay: separate phage display screening against plasmin, selected clone sequenced).

Binder	binding
B16	binds
B17	binds
B18	binds
B19	binds
B20	binds
B21	binds
B22	binds
B23	binds
B24	binds
B25	binds
B26	binds
B27	binds
B28	binds
B29	binds
B30	binds
B31	binds

What follows are binders tested against human plasmin (human) (UniProt P00747) (assay: phage display selection of the second library on plasmin, selected clone sequenced).

Binder	binding
B1	binds
B6	binds
B7	binds
B32	binds
B33	binds

What follows are binders tested against human plasmin (human) (UniProt P00747) (assay: binding of clonally pure display phage to plasmin compared with BPTI display phage).

Binder	binding
B1	binds
B6	binds
B7	binds
B32	binds
B33	binds

These binders were tested against human plasmin (human) (UniProt P00747) (assay: phage display selection of the third library, three rounds on plasmin, isolate sequenced).

Binder	binding
B2	binds
B3	binds
B34	binds
B35	binds
B36	binds
B37	binds
B4	binds
B38	binds
B39	binds
B40	binds
B41	binds
B42	binds
B43	binds
B44	binds
B5	binds

Source: patent publication US20090036365A1
